Results are given in words; binding and its absence hold for the method and conditions named.
Molecular target: soluble human PEX3 (reading frame from G25, C235S) (human) (UniProt P56589)
Experiment: native MS; each protein alone, nano-electrospray under conditions that preserve non-covalent interactions; monomers analysed at a concentration five-fold higher than the 10 µM of the complex; both purified

B1: soluble human PEX3 (reading frame from G25, C235S) (domain or fragment, UniProt P56589 25-373)
chain: GVYILGKYGQKKIREIQEREAAEYIAQARRQYHFESNQRTCNMTVLSMLPTLREALMQQLNSESLTALLKNRPSNKLEIWEDLKIISFTRSTVAVYSTCMLVVLLRVQLNIIGGYIYLDNAAVGKNGTTILAPPDVQQQYLSSIQHLLGDGLTELITVIKQAVQKVLGSVSLKHSLSLLDLEQKLKEIRNLVEQHKSSSWINKDGSKPLLSHYMMPDEETPLAVQACGLSPRDITTIKLLNETRDMLESPDFSTVLNTCLNRGFSRLLDNMAEFFRPTEQDLQHGNSMNSLSSVSLPLAKIIPIVNGQIHSVCSETPSHFVQDLLTMEQVKDFAANVYEAFSTPQQLEK
Q: How did the binding turn out when B1 was run?
A: Its binding is “no binding (tested: five-fold higher than 10 µM)”.

Reference: article PMC4111287
